Data from publication doi:10.1101/2021.08.18.456703.

Amino acid sequences for entries named in this document (tags omitted). A change or cut given only in a name is not applied to a line headed by its entry.
UniProt P22626: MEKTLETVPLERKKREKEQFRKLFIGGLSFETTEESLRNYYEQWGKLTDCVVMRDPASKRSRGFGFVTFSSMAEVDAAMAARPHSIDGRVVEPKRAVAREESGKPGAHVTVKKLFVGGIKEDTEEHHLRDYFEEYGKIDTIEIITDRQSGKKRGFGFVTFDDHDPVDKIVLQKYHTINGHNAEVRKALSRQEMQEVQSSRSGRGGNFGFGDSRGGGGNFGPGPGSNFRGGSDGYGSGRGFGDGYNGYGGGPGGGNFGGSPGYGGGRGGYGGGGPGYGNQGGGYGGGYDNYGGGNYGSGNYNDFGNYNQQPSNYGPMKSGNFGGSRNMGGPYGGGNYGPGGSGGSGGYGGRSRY
UniProt P67809: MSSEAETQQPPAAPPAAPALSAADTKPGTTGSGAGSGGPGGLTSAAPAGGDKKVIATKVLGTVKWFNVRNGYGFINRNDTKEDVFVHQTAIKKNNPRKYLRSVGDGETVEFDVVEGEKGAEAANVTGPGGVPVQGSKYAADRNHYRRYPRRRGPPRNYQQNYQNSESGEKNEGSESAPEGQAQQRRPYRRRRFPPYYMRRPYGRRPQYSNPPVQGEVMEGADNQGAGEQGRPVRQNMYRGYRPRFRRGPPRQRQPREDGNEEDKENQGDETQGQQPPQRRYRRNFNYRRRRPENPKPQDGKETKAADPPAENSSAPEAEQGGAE

Assays:
Experiment in all cases: pull-down + mass spectrometry
Settings in all cases: cell lysate, other proteins present; protein in an extract
EEF1A1 = biological target: T1, EEF1A1 (UniProt P68104)
T1 sequence (looked up, limits assumed): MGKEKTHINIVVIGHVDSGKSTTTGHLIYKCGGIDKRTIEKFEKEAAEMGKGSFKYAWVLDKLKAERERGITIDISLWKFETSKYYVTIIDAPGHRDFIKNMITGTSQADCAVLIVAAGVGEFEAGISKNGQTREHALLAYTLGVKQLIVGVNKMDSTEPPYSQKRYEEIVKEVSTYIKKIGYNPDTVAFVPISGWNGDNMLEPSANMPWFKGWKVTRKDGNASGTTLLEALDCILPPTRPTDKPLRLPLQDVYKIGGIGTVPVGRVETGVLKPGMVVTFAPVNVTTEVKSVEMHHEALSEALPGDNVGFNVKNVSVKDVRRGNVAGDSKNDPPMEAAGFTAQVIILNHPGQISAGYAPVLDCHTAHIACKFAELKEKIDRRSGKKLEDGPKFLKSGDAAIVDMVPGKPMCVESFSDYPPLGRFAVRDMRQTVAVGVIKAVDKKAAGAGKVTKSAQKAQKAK

[1] = biological target: HNRNPA2B1 (printed HNRNA2B1) (UniProt P22626)
HNRNPM = biological target: T2, HNRNPM (UniProt P52272)
T2 sequence (looked up, limits assumed): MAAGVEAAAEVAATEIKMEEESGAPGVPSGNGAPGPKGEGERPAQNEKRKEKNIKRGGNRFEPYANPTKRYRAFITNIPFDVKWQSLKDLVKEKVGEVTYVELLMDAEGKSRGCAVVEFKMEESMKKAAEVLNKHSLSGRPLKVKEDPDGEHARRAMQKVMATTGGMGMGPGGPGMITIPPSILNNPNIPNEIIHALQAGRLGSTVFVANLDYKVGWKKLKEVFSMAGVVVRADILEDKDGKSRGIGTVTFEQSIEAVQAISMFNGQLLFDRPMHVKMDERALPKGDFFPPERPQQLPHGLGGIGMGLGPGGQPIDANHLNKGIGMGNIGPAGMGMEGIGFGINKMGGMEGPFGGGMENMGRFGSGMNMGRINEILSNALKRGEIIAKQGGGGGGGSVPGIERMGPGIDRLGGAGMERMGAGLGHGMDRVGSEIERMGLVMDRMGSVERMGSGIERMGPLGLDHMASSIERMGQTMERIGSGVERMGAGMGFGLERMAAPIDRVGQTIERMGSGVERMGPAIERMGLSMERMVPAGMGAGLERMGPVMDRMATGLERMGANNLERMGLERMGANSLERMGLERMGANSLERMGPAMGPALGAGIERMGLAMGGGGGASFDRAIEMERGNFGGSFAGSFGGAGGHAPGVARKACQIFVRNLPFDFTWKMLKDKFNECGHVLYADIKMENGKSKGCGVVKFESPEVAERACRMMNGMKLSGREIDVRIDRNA

SYNCRIP = biological target: T3, SYNCRIP (UniProt O60506)
T3 sequence (looked up, limits assumed): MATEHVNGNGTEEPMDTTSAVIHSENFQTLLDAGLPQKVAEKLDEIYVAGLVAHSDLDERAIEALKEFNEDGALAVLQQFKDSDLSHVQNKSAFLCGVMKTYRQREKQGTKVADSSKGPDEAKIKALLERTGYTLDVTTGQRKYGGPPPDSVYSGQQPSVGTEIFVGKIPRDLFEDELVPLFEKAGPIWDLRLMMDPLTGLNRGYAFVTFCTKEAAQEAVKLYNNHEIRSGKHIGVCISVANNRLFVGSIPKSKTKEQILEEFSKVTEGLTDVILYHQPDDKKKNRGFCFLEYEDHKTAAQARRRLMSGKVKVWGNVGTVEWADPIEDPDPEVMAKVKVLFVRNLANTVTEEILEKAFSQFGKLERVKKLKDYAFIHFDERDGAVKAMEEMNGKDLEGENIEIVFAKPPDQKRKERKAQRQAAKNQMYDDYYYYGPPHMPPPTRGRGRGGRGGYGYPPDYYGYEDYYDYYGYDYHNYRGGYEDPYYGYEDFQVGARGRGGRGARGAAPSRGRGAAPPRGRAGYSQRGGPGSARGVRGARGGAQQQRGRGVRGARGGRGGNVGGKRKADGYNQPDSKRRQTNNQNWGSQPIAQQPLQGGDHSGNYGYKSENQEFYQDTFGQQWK

[2] = biological target: YBX1 (YBOX1, Y-box protein 1) (UniProt P67809)

Measured: binding result

UCGUAGGUCAGGAAGCGGCG [M1 EXO-Code]
binds: all assays above

For at least one entry, the source does not settle the construct or the ends of the probe. At least one result comes from cells or an extract, where the contact may be indirect. For some assays here: Where a protein sequence is shown, tags need not be part of it.
